PubChem BioAssay AID686943, Drosophila RNAi Screening Center | 2013

Test: 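Knockdowns that increase or decrease active ERK after insulin receptor stimulation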 (primary screen)
Cell system: Drosophila S2R+ haemocyte-like cells expressing YFP-tagged ERK (Rolled)
Reagent: long dsRNA against Drosophila genes
Conditions: insulin stimulation versus unstimulated cells; dose and duration not given
Detection: 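Antibody staining for doubly phosphorylated ERK divided by ERK-YFP signal, as plate z-scores, in insulin-treated and untreated cells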
Reading the numbers: replicate 1, z-score of dpERK with insulin and replicate 2, z-score of dpERK with insulin: higher = more active ERK per ERK-YFP after insulin; replicate 1, z-score of dpERK under basal conditions: higher = more basal active ERK per ERK-YFP; replicate 1, z-score of ERK-YFP with insulin: higher = more YFP-tagged ERK signal
The deposit covers about 23,000 reagents; this is a random part of those with a known target gene and a result. 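Extra replicates exist only for a retested subset of genes; insulin dose and duration not given; both raised and lowered dpERK matter.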 A plus sign joins genes that one reagent is predicted to hit. Reagent sequences are not shown. Not stated in the record: the amount of reagent, the time to read-out.

gene | amplicon | replicate 1, z-score of dpERK with insulin | replicate 2, z-score of dpERK with insulin | replicate 1, z-score of dpERK under basal conditions | replicate 1, z-score of ERK-YFP with insulin
CG16863 | DRSC01892 | -0.39 | -0.08 | 1.05 | -0.44
CG31817 | DRSC01537 | -0.37 | -0.14 | -1.37 | -0.14
CG31817 | DRSC01538 | 0.9 | -0.48 | -0.6 | -0.81
CG31817 | DRSC22476 | 0.18 | -0.08 | -0.88 | -0.17
Arp5 | DRSC16350 | 0.54 | -0.59 | -0.52 | 0.6
CG11638 | DRSC18167 | 0.68 | 0.28 | 0.19 | -0.47
CG11638 | DRSC18640 | 0.71 | -0.07 | -0.09 | 0.41
CG6893 | DRSC10742 | -0.73 | -0.65 | -0.14 | 0.49
Hsp70Bb + Hsp70Bbb | DRSC15885 | 1.13 | -0.11 | 0.09 | 0.25
CG31380 | DRSC15688 | -0.18 | -0.15 | -0.16 | 0.41
Mcm10 | DRSC03162 | 0 | 0.02 | -0.11 | 0.31
CG30349 | DRSC06421 | -0.1 | -0.22 | -0.71 | 0.75
CG30349 | DRSC06839 | -0.57 | 0.03 | -0.72 | 0.65
CG34155 | DRSC13991 | -0.09 | -0.54 | -0.47 | 0.87
Acp24A4 | DRSC22352 | 0.51 | -0.3 | -0.07 | -1.28
Gart | DRSC03481 | 0.06 | 0 | 0.04 | 0.27
CG42662 + CG30080 | DRSC05571 | 1.91 | 1.09 | 1.23 | 0.49
CG15293 | DRSC01919 | -0.62 | -0.29 | -0.81 | 0.88
smal | DRSC02318 | 0.49 | -0.33 | -0.1 | -0.9
smal | DRSC02319 | -1.15 | 0.08 | -1.17 | 0.48
smal | DRSC02320 | 0.19 | 0.3 | -0.42 | -1.34
smal | DRSC02504 | 0.04 | 0.62 | -0.97 | -0.43
smal | DRSC22866 | -0.29 | -0.96 | -1.99 | 0.51
Glg1 | DRSC11815 | 0.05 | -0.47 | -1.16 | 0.71
Glg1 | DRSC11816 | 0.49 | 0.58 | -0.31 | -0.15
Glg1 | DRSC11817 | 0.02 | -0.13 | 1.76 | 0.45
js | DRSC15004 | -0.12 | -0.13 | 0.75 | 0.51
RpL34a | DRSC15964 | -0.15 | 0.2 | 0.29 | -0.66
CG12851 | DRSC04131 | -0.74 | 1.04 | -0.12 | 0.3
OtopLa | DRSC17787 | 1.36 | 1.22 | 1.49 | 0
OtopLa | DRSC18133 | 0.32 | 0.46 | 1.49 | 0.11
Acph-1 | DRSC14103 | -0.24 | 0.18 | 0.69 | -0.37
CG34217 | DRSC05083 | -0.99 | -0.36 | 1.31 | 0.07
Or83c | DRSC12359 | -0.72 | 0.11 | -0.15 | -0.3
Arf1 | DRSC11606 | 0.9 | -0.72 | -0.76 | -1.93
Ire1 | DRSC15606 | -0.18 | 0.12 | -1.26 | 0.14
Wdr92 | DRSC10187 | 0.54 | -0.66 | -1.14 | 0.09
MtnD | DRSC22733 | 0.49 | 0.5 | 0.13 | 0.34
CG5727 | DRSC02882 | 0.21 | -0.25 | 1.22 | 0.37
CG10344 | DRSC04066 | 1.55 | -0.27 | -0.39 | -0.89
MrgBP | DRSC06417 | -1.68 | -1.88 | -1.34 | -0.71
Ugt37B1 | DRSC03225 | 0.52 | -0.02 | 0.22 | 1.22
CG5376 | DRSC15782 | 0.27 | 0.28 | 0.91 | -1.12
Mfe2 | DRSC19869 | -0.3 | 0.38 | -0.12 | -0.21
upSET | DRSC11051 | -0.56 | -3.11 | -2.14 | -0.23
CG3982 | DRSC10394 | -4.32 | -4 | -2.73 | 0.02
Ant2 | DRSC19330 | -1.12 | -0.31 | -0.12 | -0.59
Gbeta76C | DRSC11174 | -0.28 | -0.38 | 0.95 | 0.89
CG9626 | DRSC16525 | 0.23 | -0.44 | -0.24 | -0.13
CG42502 + CG10570 | DRSC02071 | -0.61 | -0.53 | 2.03 | -0.44
PIG-O | DRSC06123 | -0.23 | 0.4 | 1.01 | 0.65
Nsun2 | DRSC18662 | 1.28 | 0.72 | -0.19 | 0.95
CG7164 | DRSC03018 | -1.76 | -0.33 | -0.44 | 1.49
CPT2 | DRSC08553 | 0.81 | 1.1 | -1.04 | -0.27
Or85e | DRSC16768 | 0.73 | -0.14 | 0.05 | -0.76
CG42268 | DRSC10171 | 0.99 | 2.85 | 2.03 | -3.76
CG42268 | DRSC10702 | 0.52 | -0.03 | -0.53 | 0.86
CG42268 | DRSC21797 | 1.34 | 0.23 | 0.37 | 0.7

No new results follow: 7 of the entries above.
gene | amplicon | replicate 1, z-score of dpERK with insulin | replicate 2, z-score of dpERK with insulin | replicate 1, z-score of dpERK under basal conditions | replicate 1, z-score of ERK-YFP with insulin
CG11638 | DRSC18640 | 0.71 | -0.07 | -0.09 | 0.41
CG6893 | DRSC10742 | -0.73 | -0.65 | -0.14 | 0.49
Hsp70Bb + Hsp70Bbb | DRSC15885 | 1.13 | -0.11 | 0.09 | 0.25
CG31380 | DRSC15688 | -0.18 | -0.15 | -0.16 | 0.41
Mcm10 | DRSC03162 | 0 | 0.02 | -0.11 | 0.31
CG30349 | DRSC06421 | -0.1 | -0.22 | -0.71 | 0.75
CG30349 | DRSC06839 | -0.57 | 0.03 | -0.72 | 0.65
